According to paper PMC3285591:
Results are given in words; binding and its absence hold for the method and conditions named. Binding seen in cells or lysates may run through a third protein. These calls come from enrichment with a bait or labelling near it, and not all partners need be listed. One block for each binder: values may come before it.

Target: HA-tagged wild type Dlg
Test: affinity purification with mass spectrometry; HA-tagged Dlg transfected into HEK293; extracts (50 mM HEPES pH 7.4, 150 mM NaCl, 50 mM NaF, 1 mM EDTA, 0.25% NP-40) on anti-HA beads 2-3 h at 4 °C; compared with mock-transfected cells

binding: binds
B1: LIN7C (protein, UniProt Q9NUP9 1-197)
chain: MAALGEPVRLERDICRAIELLEKLQRSGEVPPQKLQALQRVLQSEFCNAVREVYEHVYETVDISSSPEVRANATAKATVAAFAASEGHSHPRVVELPKTEEGLGFNIMGGKEQNSPIYISRIIPGGIADRHGGLKRGDQLLSVNGVSVEGEHHEKAVELLKAAQGKVKLVVRYTPKVLEEMESRFEKMRSAKRRQQT

binding: binds
B2: Net1 (protein, UniProt Q7Z628 1-596)
chain: MEPELAAQKQPRPRRRSRRASGLSTEGATGPSADTSGSELDGRCSLRRGSSFTFLTPGPNWDFTLKRKRREKDDDVVSLSSLDLKEPSNKRVRPLARVTSLANLISPVRNGAVRRFGQTIQSFTLRGDHRSPASAQKFSSRSTVPTPAKRRSSALWSEMLDITMKESLTTREIRRQEAIYEMSRGEQDLIEDLKLARKAYHDPMLKLSIMSEEELTHIFGDLDSYIPLHEDLLTRIGEATKPDGTVEQIGHILVSWLPRLNAYRGYCSNQLAAKALLDQKKQDPRVQDFLQRCLESPFSRKLDLWSFLDIPRSRLVKYPLLLKEILKHTPKEHPDVQLLEDAILIIQGVLSDINLKKGESECQYYIDKLEYLDEKQRDPRIEASKVLLCHGELRSKSGHKLYIFLFQDILVLTRPVTRNERHSYQVYRQPIPVQELVLEDLQDGDVRMGGSFRGAFSNSEKAKNIFRIRFHDPSPAQSHTLQANDVFHKQQWFNCIRAAIAPFQSAGSPPELQGLPELHEECEGNHPSARKLTAQRRASTVSSVTQVEVDENAYRCGSGMQMAEDSKSLKTHQTQPGIRRARDKALSGGKRKETLV
